# Measurements reported in PubChem BioAssay AID504791 (Drosophila RNAi Screening Center, 2011)
# Test: 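Factors in Argonaute-based small RNA production and activity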 (primary screen)
# Cell system: Drosophila S2-derived reporter cells
# Reagent: long dsRNA against Drosophila genes, about 150-250 ng dsRNA per well (siRNA assay); about 80-120 ng (miRNA assay)
# Duration: about 5 days (siRNA assay); about 4 days (miRNA assay)
# Challenge: copper sulfate induction of reporters: 25 µM (siRNA assay); 200 mM stated (miRNA assay), 1-2 days before reading
# Read-out: 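Dual luciferase assay: Renilla to firefly signal ratio in each well, scaled to the mean ratio of its plate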
# Reading the numbers: siRNA reporter hit score: higher = 3 marks a strong hit with raised ratio; -3 a strong hit with lowered ratio
# Rule for the call: 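a well was a first-pass pick when its plate-scaled ratio rose above 1.5 (siRNA assay) or 1.6 (miRNA assay), or dropped below 0.6; a gene counted only if two separate dsRNAs agreed on retest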
# In all, the deposit lists about 23,000 reagents; shown is a random part of those that have a named target and a result. In the full data, 199 (0.86%) were called active. 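Plate-scaled ratios behind the calls are not deposited; printed light signals are raw; many rows marked increased or decreased are still called inactive.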 A number with no mark means an inactive call. Reagents against one gene are numbered here. A plus sign joins genes that one reagent is predicted to hit. No sequences are given here.
gene,dsRNA no.,siRNA reporter hit score,stable siRNA reporter change,"stable assay Renilla, run 1 (luminescence)","stable assay firefly, run 1 (luminescence)"
Dop2R (Dopamine 2-like receptor),1,,,5390,4.03e5
Dop2R (Dopamine 2-like receptor),2,,,5614,4.02e5
Peritrophin-15b,1,,,6691,3.99e5
CAH15 (Carbonic anhydrase 15),1,,,6766,4.55e5
Gr2a (Gustatory receptor 2a),1,,,7218,4.42e5
Ski6,1,,,8184,3.81e5
CG16972,1,,,9937,1.19e6
CG33268,1,,,5396,4.01e5
omd (oocyte maintenance defects),1,-3,,14819,8.84e5
Ir94g (Ionotropic receptor 94g),1,,,6532,2.70e5
CG13171,1,,,5638,3.12e5
CG32104,1,,,6016,5.13e5
CG32104,2,,,6131,5.47e5
dnc (dunce),1,,,5567,2.55e5
dnc (dunce),2,,,5292,4.11e5
dnc (dunce),3,,,5591,2.84e5
dnc (dunce),4,,,5759,2.86e5
dnc (dunce),5,,,7347,5.01e5
hoka,1,,,6868,5.31e5
CG14691,1,,,6806,4.04e5
baf (barrier to autointegration factor),1,,,6362,5.04e5
Ibf1 (Insulator binding factor 1),1,,,5950,4.39e5
CG10311,1,,,7443,2.98e5
CG10383,1,,,6634,1.51e6
CG12994,1,,,2675,3.26e5
CG12994,2,,,6446,6.62e5
eca (eclair),1,,,12034,8.31e5
CG3632,1,,,6252,5.79e5
CG3632,2,,,7578,5.44e5
CG12963,1,,,5819,3.30e5
CG15535,1,,,6723,4.54e5
CG7695,1,,,7587,5.52e5
CG30026,1,,,6276,3.02e5
IntS12 (Integrator 12),1,,,8746,5.10e5
att-ORFB + DPCoAC,1,,,9515,5.54e5
CG4613,1,,,7789,3.75e5
CG44422,1,,,5700,5.40e5
CG44422,2,,,4675,4.26e5
CG44422,3,,,5891,3.60e5
CG44422,4,,,2220,2.52e5
b6,1,,,6535,4.76e5
vito (viriato),1,,,10006,5.14e5
Ccp84Ac,1,,,5943,3.09e5
CG14760,1,,,7030,3.41e5
CG8773,1,,,8139,4.55e5
CG9213,1,,,8949,4.20e5
CG33306,1,,,7635,1.57e6
Recs1,1,,,6654,5.41e5
Creld (Cysteine rich with EGF like domains),1,,,6875,4.10e5
Hex-t1 (Hexokinase testis 1),1,,,7315,3.88e5
St2 (Sulfotransferase 2),1,,,7198,4.48e5
St2 (Sulfotransferase 2),2,,,4187,4.01e5
HPS1 (Hermansky-Pudlak Syndrome 1),1,,,9061,5.68e5
Nup62 (Nucleoporin 62kD),1,,,9242,2.55e5
CG15048 (retired record),1,,,5403,4.02e5
CG4704,1,,,6287,2.93e5
wntD (wnt inhibitor of Dorsal),1,,,7639,4.28e5
CG6607,1,,,6242,2.83e5
PGAP1 (Post-GPI attachment to proteins 1),1,,,8123,5.09e5
ODA-Dnal1 (Outer dynein arm dynein axonemal light chain 1),1,,,6550,3.20e5

Records listed so far whose target name begins with O or o (2):
gene,dsRNA no.,siRNA reporter hit score,stable siRNA reporter change,"stable assay Renilla, run 1 (luminescence)","stable assay firefly, run 1 (luminescence)"
omd (oocyte maintenance defects),1,-3,,14819,8.84e5
ODA-Dnal1 (Outer dynein arm dynein axonemal light chain 1),1,,,6550,3.20e5

The results go on.
gene,dsRNA no.,siRNA reporter hit score,stable siRNA reporter change,"stable assay Renilla, run 1 (luminescence)","stable assay firefly, run 1 (luminescence)"
Slob (retired record),1,,,93042,1.87e5
twy (twitchy),1,,,6891,3.98e5
CG15097,1,,,11295,6.13e5
CG30197,1,,,5190,4.75e5
CG15450,1,,,4199,3.04e5
CG7386,1,,,7098,4.32e5
cpx (complexin),1,,,4719,3.77e5
Gasp,1,,,8506,4.69e5
CG15209,1,,,5850,5.22e5
CG12420,1,,,4319,3.25e5
CG14374,1,,,7931,4.67e5
CG1703,1,,,7672,4.20e5
CG32821 (retired record),1,,,4819,4.79e5
galla-2,1,,,3767,5.01e5
galla-2,2,,,8073,4.93e5
CG2519,1,,,7067,4.15e5
prc (pericardin),1,,,6579,3.28e5
slo (slowpoke),1,,,9054,2.89e5
Polr2A (RNA polymerase II subunit A),1,,,4200,1.60e5
Sirup (Starvation-upregulated protein),1,,,6886,3.68e5
CG3699,1,,,7367,3.88e5
CG3699,2,,,6672,4.75e5
CG34135,1,,,6022,4.13e5
Gpa2 (Glycoprotein hormone alpha 2),1,,,6218,4.46e5
RpL5 (Ribosomal protein L5),1,,reporter ratio raised past the hit cutoff (active),6350,2.30e5
mRpL17 (mitochondrial ribosomal protein L17),1,,,5118,3.91e5
disco (disconnected),1,,,6147,4.60e5
CG14958,1,,,7790,4.52e5
CG5418,1,,,8886,5.17e5
CG14683,1,,,8052,4.40e5
tin (tinman),1,,reporter ratio lowered past the hit cutoff,8566,7.08e5
tin (tinman),2,,,3760,3.02e5
tin (tinman),3,,,4236,2.60e5
CG31407,1,,,6136,4.35e5
RpL10 (Ribosomal protein L10),1,,,7521,4.33e5
ppk3 (pickpocket 3),1,,,6687,4.22e5
CG31460,1,,,9442,4.63e5
CG31815,1,,,5032,4.12e5
CG14062,1,,,6186,3.03e5
Sys1 (Sys1 golgi trafficking protein),1,,,6872,4.35e5
Usp15-31 (Ubiquitin specific protease 15/31),1,,,26907,2.21e6
Usp15-31 (Ubiquitin specific protease 15/31),2,,,4619,2.12e5
Ttc30 (Tetratricopeptide repeat domain 30),1,,,5119,4.95e5
Ttc30 (Tetratricopeptide repeat domain 30),2,,,4408,4.91e5
LSm1 (Like Sm 1),1,,,6570,5.64e5
Lip2 (Lipase 2),1,,,7444,3.91e5
Lip2 (Lipase 2),2,,,7178,4.70e5
